Results: the supplement of paper PMC12067093, “Discovery and optimisation of a covalent ligand for TRIM25 and its application to targeted protein ubiquitination” (Chemical Science, 2025)
Some of the results follow.

Chains of the proteins cited; added tags and fusions are not shown. Lines headed by an entry give the natural chain unless they say otherwise; changes in a name come on top.
UniProt Q92499: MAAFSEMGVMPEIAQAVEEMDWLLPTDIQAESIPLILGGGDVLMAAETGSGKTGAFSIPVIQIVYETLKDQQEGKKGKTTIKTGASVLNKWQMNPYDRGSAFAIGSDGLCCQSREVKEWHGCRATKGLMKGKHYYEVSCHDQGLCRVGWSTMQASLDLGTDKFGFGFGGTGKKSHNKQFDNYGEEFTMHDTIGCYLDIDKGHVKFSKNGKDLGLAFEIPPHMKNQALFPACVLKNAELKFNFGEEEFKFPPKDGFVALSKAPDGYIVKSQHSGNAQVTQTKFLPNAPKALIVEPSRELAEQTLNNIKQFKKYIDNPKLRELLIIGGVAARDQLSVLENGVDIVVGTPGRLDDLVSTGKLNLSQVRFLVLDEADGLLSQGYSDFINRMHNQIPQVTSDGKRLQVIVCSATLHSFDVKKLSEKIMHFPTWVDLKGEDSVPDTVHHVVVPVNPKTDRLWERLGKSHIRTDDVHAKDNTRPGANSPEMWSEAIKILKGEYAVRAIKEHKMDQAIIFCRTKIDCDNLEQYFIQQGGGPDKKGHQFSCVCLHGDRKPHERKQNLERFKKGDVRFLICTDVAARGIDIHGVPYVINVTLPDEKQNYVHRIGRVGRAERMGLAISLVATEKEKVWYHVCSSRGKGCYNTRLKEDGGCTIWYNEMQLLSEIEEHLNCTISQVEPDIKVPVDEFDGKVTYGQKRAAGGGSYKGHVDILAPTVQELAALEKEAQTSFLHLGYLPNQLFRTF
UniProt Q16531, whole entry, looked up: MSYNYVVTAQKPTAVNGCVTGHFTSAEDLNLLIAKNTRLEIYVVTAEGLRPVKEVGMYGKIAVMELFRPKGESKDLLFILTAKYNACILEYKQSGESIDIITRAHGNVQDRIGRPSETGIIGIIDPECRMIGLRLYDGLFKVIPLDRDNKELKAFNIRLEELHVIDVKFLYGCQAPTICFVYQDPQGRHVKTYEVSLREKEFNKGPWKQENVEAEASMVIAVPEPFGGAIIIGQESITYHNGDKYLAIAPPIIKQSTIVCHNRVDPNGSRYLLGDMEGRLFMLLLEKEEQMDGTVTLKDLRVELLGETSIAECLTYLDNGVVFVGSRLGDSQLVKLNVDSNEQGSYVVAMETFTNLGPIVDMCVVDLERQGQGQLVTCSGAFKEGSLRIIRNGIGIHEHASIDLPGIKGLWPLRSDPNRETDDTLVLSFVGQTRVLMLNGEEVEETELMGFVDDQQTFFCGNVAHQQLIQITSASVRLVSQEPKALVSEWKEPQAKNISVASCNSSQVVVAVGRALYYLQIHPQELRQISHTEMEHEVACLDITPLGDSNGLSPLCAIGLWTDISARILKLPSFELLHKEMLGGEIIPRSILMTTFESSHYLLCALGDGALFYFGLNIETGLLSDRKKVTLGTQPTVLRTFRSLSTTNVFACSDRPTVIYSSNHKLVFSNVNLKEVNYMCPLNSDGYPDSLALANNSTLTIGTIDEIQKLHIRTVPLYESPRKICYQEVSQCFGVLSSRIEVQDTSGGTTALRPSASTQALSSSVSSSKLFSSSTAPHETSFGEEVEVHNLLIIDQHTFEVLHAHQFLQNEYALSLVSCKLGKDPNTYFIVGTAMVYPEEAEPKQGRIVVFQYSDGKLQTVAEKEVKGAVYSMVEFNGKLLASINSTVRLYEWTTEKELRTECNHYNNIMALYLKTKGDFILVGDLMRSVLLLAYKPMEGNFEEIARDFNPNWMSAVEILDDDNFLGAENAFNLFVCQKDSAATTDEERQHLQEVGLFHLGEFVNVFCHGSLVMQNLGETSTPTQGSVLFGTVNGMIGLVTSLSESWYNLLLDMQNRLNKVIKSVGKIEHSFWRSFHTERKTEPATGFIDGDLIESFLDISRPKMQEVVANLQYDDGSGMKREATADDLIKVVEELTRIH
UniProt Q9H4E7, whole entry, looked up: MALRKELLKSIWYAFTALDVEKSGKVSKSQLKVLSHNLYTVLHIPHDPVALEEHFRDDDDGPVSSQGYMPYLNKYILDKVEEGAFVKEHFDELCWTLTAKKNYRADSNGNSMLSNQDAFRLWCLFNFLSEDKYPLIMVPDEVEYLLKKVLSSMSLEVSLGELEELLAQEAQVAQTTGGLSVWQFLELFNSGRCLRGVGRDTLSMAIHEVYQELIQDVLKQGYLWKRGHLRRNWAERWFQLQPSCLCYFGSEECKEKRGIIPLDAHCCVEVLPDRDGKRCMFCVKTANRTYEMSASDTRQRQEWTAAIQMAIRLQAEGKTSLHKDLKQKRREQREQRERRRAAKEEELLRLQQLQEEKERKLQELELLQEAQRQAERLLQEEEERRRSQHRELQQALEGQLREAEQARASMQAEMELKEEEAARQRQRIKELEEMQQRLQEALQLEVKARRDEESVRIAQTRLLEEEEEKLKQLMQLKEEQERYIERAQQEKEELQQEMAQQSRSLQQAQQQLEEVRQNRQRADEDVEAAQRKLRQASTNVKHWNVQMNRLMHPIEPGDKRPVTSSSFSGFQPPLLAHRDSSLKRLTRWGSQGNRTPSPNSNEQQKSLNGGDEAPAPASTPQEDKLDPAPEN
UniProt Q13838, whole entry, looked up: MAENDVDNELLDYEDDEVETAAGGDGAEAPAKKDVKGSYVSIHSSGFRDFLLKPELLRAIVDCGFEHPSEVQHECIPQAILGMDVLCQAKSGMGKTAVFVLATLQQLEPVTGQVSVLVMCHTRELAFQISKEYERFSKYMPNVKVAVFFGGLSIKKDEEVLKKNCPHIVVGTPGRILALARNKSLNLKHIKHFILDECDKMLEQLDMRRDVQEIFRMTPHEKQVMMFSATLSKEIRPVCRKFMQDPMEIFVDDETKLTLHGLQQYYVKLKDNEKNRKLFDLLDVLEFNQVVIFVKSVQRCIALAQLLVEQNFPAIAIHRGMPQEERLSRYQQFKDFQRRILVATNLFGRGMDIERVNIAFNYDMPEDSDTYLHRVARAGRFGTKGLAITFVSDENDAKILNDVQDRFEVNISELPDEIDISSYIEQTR
UniProt P17844: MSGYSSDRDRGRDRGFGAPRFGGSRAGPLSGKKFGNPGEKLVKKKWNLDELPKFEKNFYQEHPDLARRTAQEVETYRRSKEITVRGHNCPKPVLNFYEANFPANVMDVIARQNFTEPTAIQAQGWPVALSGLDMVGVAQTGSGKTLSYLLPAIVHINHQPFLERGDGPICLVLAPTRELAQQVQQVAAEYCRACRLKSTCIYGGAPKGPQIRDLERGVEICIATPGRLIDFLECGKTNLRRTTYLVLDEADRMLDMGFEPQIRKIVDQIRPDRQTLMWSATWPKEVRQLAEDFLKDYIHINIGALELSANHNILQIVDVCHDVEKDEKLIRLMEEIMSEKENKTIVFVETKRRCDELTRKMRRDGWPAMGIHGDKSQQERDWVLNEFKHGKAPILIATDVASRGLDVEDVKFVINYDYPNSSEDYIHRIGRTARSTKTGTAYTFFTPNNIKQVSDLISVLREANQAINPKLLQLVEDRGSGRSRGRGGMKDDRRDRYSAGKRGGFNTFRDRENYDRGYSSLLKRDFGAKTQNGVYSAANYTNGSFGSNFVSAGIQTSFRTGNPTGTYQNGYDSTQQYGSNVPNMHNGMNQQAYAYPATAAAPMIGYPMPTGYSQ
UniProt Q7L014: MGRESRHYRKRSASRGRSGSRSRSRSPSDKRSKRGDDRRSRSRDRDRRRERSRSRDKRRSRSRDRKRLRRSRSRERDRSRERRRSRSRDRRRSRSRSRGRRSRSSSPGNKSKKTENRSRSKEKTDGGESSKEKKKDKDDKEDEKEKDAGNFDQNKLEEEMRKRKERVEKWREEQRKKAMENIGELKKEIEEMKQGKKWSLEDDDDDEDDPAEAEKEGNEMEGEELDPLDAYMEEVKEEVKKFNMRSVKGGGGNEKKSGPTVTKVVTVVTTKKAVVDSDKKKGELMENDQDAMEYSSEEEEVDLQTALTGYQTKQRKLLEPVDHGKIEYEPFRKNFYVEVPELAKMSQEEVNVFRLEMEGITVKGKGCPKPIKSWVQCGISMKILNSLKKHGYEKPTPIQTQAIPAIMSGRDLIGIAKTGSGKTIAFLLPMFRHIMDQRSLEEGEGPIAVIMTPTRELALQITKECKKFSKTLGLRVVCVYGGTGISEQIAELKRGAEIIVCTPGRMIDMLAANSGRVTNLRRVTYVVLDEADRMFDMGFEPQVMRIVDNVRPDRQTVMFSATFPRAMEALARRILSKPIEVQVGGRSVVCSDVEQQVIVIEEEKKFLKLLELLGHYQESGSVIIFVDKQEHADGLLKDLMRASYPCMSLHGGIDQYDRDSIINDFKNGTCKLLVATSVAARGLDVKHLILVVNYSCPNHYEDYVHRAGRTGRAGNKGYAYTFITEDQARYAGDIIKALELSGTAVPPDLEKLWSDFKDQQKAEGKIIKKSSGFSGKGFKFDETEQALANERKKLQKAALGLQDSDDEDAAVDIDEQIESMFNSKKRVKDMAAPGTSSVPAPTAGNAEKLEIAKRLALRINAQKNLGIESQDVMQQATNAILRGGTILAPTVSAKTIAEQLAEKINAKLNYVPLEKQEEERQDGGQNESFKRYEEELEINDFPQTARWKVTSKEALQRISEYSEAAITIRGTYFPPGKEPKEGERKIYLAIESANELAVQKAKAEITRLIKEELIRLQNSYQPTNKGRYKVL
UniProt O00571: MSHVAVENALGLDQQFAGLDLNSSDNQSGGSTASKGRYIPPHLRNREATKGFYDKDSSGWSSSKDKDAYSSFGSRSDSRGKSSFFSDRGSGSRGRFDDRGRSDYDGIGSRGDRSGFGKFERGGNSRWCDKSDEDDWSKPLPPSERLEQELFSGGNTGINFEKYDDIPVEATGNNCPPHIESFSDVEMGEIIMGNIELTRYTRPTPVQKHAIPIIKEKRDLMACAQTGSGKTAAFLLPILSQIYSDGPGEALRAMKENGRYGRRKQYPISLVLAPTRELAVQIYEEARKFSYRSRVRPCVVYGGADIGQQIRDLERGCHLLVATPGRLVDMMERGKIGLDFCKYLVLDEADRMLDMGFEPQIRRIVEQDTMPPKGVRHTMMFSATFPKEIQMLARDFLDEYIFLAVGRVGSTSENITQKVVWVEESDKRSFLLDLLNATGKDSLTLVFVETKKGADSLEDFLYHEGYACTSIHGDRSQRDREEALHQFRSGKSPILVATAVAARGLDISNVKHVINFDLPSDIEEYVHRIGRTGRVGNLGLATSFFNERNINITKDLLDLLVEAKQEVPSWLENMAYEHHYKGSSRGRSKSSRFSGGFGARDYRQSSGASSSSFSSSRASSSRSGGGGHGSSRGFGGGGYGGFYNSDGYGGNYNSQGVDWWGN
UniProt A2RUS2: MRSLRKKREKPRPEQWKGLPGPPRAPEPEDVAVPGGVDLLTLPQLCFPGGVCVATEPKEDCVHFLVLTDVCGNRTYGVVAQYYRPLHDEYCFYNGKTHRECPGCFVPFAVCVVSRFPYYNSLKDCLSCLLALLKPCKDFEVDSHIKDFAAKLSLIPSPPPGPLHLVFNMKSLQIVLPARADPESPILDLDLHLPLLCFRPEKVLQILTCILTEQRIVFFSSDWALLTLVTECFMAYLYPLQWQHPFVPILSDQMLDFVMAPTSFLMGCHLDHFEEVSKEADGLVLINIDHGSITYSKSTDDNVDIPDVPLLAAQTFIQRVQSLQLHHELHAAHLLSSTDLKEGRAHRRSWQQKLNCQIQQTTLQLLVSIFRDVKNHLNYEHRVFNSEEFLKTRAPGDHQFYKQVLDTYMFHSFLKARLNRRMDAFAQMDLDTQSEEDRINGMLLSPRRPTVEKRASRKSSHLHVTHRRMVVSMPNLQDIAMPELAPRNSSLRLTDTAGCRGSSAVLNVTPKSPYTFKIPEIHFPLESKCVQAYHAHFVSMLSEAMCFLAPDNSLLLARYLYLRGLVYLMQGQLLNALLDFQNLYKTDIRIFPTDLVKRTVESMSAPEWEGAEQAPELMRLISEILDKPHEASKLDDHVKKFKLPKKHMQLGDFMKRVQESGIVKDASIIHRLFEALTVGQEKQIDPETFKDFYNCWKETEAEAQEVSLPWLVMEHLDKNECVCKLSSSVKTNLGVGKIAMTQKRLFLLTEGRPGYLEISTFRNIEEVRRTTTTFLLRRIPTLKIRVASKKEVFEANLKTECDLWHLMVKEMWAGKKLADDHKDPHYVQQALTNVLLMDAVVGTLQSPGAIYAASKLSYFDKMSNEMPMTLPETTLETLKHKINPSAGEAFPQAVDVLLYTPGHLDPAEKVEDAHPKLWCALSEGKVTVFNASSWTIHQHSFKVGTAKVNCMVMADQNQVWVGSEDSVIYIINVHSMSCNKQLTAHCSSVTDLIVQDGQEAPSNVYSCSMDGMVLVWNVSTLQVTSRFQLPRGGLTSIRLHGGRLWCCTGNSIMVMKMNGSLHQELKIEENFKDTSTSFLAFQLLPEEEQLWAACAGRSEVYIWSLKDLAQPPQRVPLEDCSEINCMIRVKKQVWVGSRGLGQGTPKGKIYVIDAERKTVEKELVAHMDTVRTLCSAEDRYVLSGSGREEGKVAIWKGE

Compound: CC1Cc2ccccc2N1C(=O)C1CCCN(C1)C(=O)CCl (mixture of isomers) [TRIM25 ligand 11 (diastereomer mixture)]
Assay: probe-labelled cysteine peptide fold change vs DMSO (competition) (log2 fold change); higher = less target engagement (more negative = stronger competition)
Details: THP-1, incubation time: 4 h
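Further: competitive chemoproteomic profiling in live THP-1 cells with an iodoacetamide desthiobiotin (IA-DTB) probe, comparing probe-labelled peptide intensities in compound-treated cells against DMSO-treated controls.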

Target	probe-labelled cysteine peptide fold change (10 µM)	probe-labelled cysteine peptide fold change (50 µM)
DDX1_Q92499_231_NQALFPACVLK (UniProt Q92499)	-0.0868	-0.048
DENND1A_Q8TEH3_459_DIAENGCAPTPEEQLPK (UniProt Q8TEH3)	-0.0198	-0.195
DDB1_Q16531_260_QSTIVCHNR (UniProt Q16531)	0.00141	-0.00159
DDX17_Q92841_199_GGDVCPKPVFAFHHANFPQYVMDVLMDQHFTEPTPIQCQGFPLALSGR (UniProt Q92841)	-0.173	-0.356
DEF6_Q9H4E7_94_EHFDELCWTLTAK (UniProt Q9H4E7)	0.0244	0.0187
DEF6_Q9H4E7_267_GIIPLDAHCCVEVLPDR (UniProt Q9H4E7)	0.0266	0.124
DDX39B_Q13838_239_EIRPVCR (UniProt Q13838)	-0.016	0.0102
DDX18_Q9NVP1_329_NLQCLVIDEADRILDVGFEEELK (UniProt Q9NVP1)	-0.227	-0.196
DDX5_P17844_234_LIDFLECGK (UniProt P17844)	-0.125	-0.119
DDX20_Q9UHI6_758_LQTEAQEDDWYDCHR (UniProt Q9UHI6)	0.0414	-0.106
DGKZ_Q13574_1063_TICHYIVEAGASLMK (UniProt Q13574)	-0.0699	-0.0525
DDX5_P17844_354_CDELTR (UniProt P17844)	-0.036	0.0644
DDX1_Q92499_519_TKIDCDNLEQYFIQQGGGPDKK (UniProt Q92499)	-0.196	-0.185
DDX24_Q9GZR7_599_SLVFANSISCIK (UniProt Q9GZR7)	0.479	0.567
DDX46_Q7L014_646_ASYPCMSLHGGIDQYDR (UniProt Q7L014)	0.163	-0.0545
DDX39B_Q13838_198_HFILDECDK (UniProt Q13838)	-0.0282	0.027
DEK_P35659_161_SICEVLDLER (UniProt P35659)	0.0341	0.262
DDX31_Q9H8H2_464_AVQEVCPPPAGDK (UniProt Q9H8H2)	0.447	0.125
DGCR8_Q8WYQ5_514_SEVCILHEYMQR (UniProt Q8WYQ5)	0.121	0.0425

Target	probe-labelled cysteine peptide fold change (10 µM)	probe-labelled cysteine peptide fold change (50 µM)
DDX41_Q9UJV9_540_ACDESVLMDLK (UniProt Q9UJV9)	-0.0247	-0.111
DDX3X_O00571_468_GADSLEDFLYHEGYACTSIHGDR (UniProt O00571)	0.146	-0.196
DDX3X_O00571_128_WCDKSDEDDWSK (UniProt O00571)	-0.422	-0.388
DENND3_A2RUS2_61+71_EDCVHFLVLTDVCGNR (UniProt A2RUS2)	0.141	-0.498
DDX46_Q7L014_590_SVVCSDVEQQVIVIEEEKK (UniProt Q7L014)	-0.0837	-0.0804
DDX23_Q9BUQ8_692_MGYNACTLHGGK (UniProt Q9BUQ8)	-0.0642	-0.0335
DELE1_Q14154_286_AQYNAGLCHEHGR (UniProt Q14154)	0.399	0.367
DDX24_Q9GZR7_620_VLDIMPLTLHACMHQK (UniProt Q9GZR7)	-0.0149	0.0466
DENND3_A2RUS2_128_DCLSCLLALLK (UniProt A2RUS2)	-0.0517	0.242
DEF6_Q9H4E7_279_CMFCVK (UniProt Q9H4E7)	-0.0839	0.143
DDB1_Q16531_128_PSETGIIGIIDPECR (UniProt Q16531)	-0.189	0.032
DDX5_P17844_200_STCIYGGAPK (UniProt P17844)	-0.0684	-0.21
DDX31_Q9H8H2_584_GVLLCTDVAAR (UniProt Q9H8H2)	0.0295	0.0689
DDX39A_O00148_197_HFVLDECDK (UniProt O00148)	-0.0844	0.0348
DDX17_Q92841_319_CTYLVLDEADR (UniProt Q92841)	-0.0284	0.0638
DDX54_Q8TDD1_149_TACFLLPMFER (UniProt Q8TDD1)	-0.107	0.113
DDX1_Q92499_513_MDQAIIFCR (UniProt Q92499)	0.0862	0.135
DENND3_A2RUS2_197_ADPESPILDLDLHLPLLCFRPEK (UniProt A2RUS2)	0.0355	0.188
DECR1_Q16698_116_VHAIQCDVR (UniProt Q16698)	0.065	0.0272
